This is an account of results in PMC11379071.

By UniProt entry, the sequences of proteins in these tests, tags left out.
UniProt P18848: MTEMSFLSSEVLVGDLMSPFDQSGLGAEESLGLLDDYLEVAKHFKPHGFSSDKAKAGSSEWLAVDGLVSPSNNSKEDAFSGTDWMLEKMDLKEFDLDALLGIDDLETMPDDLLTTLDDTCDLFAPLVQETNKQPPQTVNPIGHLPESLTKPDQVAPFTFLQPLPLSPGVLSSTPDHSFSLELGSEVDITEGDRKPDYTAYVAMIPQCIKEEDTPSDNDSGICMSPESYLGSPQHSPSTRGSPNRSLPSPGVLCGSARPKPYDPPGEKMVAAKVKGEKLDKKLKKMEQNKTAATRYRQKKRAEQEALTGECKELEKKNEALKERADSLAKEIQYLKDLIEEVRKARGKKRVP
UniProt P46937: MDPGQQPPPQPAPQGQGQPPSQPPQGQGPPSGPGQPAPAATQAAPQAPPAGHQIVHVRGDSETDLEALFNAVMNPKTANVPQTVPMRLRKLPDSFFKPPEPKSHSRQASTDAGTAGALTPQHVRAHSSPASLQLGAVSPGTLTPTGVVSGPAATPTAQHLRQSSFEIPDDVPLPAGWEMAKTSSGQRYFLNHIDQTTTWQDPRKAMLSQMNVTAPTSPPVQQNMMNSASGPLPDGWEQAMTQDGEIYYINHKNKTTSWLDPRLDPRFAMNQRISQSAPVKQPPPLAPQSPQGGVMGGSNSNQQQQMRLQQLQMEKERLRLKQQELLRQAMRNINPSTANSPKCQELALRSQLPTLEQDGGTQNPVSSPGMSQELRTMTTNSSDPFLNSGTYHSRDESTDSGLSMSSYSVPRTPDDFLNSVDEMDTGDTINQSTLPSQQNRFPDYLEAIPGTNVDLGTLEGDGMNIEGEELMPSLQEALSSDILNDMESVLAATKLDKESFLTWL

Results are given in words; binding and its absence hold for the method and conditions named. In cells and extracts the contact can be indirect. Some binding calls cover weakened binding; strength is not graded here.

Assay [1] has as its target activating transcription factor 4 (ATF4) (human (endogenous in HepG2 and HUH6)) (UniProt P18848). In words: co-IP; reciprocal co-IP of endogenous YAP1 and ATF4 with anti-YAP1 and anti-ATF4 antibodies, followed by WB, in HepG2 and HUH6 cells.
Assay [2] addresses T1, YTHDF2 (human (endogenous in HepG2 and HUH6)) (UniProt Q9Y5A9).
T1 sequence: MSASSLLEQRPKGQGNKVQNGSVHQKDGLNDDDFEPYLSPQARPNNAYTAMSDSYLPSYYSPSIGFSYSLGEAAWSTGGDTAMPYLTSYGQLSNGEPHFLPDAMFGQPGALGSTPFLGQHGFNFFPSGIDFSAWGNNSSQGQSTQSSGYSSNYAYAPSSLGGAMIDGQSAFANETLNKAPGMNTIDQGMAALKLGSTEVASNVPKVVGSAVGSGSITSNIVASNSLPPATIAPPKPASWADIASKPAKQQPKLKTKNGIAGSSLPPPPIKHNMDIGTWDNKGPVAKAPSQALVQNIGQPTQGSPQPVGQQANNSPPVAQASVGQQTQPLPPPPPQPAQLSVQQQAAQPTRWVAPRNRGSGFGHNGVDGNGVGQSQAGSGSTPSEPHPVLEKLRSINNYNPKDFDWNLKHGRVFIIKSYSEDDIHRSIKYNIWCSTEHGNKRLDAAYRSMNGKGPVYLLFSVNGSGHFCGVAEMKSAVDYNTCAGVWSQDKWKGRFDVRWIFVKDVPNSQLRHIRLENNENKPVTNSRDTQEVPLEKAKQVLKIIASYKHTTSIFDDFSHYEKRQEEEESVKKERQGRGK
Put plainly: co-IP; co-IP of YTHDF2 (anti-YTHDF2 antibody) with deadenylation enzymes in HepG2 and HUH6 cells, untreated or treated with RNase inhibitor.

The target in assay [3] is T2, YTHDF2 (human (endogenous in HepG2 and HUH6)), Q9Y5A9.
T2 chain: T1 sequence
The assay is described as above. The note with it: remark: other sources report otherwise.

Consider “Yes-associated protein (YAP1) (from UniProt P46937 1-504)”, for which the binding entry in assay [1] is “binds”.

B1: PARN (protein, UniProt O95453 1-639)
chain: MEIIRSNFKSNLHKVYQAIEEADFFAIDGEFSGISDGPSVSALTNGFDTPEERYQKLKKHSMDFLLFQFGLCTFKYDYTDSKYITKSFNFYVFPKPFNRSSPDVKFVCQSSSIDFLASQGFDFNKVFRNGIPYLNQEEERQLREQYDEKRSQANGAGALSYVSPNTSKCPVTIPEDQKKFIDQVVEKIEDLLQSEENKNLDLEPCTGFQRKLIYQTLSWKYPKGIHVETLETEKKERYIVISKVDEEERKRREQQKHAKEQEELNDAVGFSRVIHAIANSGKLVIGHNMLLDVMHTVHQFYCPLPADLSEFKEMTTCVFPRLLDTKLMASTQPFKDIINNTSLAELEKRLKETPFNPPKVESAEGFPSYDTASEQLHEAGYDAYITGLCFISMANYLGSFLSPPKIHVSARSKLIEPFFNKLFLMRVMDIPYLNLEGPDLQPKRDHVLHVTFPKEWKTSDLYQLFSAFGNIQISWIDDTSAFVSLSQPEQVKIAVNTSKYAESYRIQTYAEYMGRKQEEKQIKRKWTEDSWKEADSKRLNPQCIPYTLQNHYYRNNSFTAPSTVGKRNLSPSQEEAGLEDGVSGEISDTELEQTDSCAEPLSEGRKKAKKLKRMKKELSPAGSISKNSPATLFEVPDTW
For B1, in assay [2], the binding entry was “no binding”.

B2: PAN2, Q504Q3 1-1202 (protein)
chain: MNFEGLDPGLAEYAPAMHSALDPVLDAHLNPSLLQNVELDPEGVALEALPVQESVHIMEGVYSELHSVVAEVGVPVSVSHFDLHEEMLWVGSHGGHATSFFGPALERYSSFQVNGSDDIRQIQSLENGILFLTKNNLKYMARGGLIIFDYLLDENEDMHSLLLTDSSTLLVGGLQNHIIEIDLNTVQETQKYAVETPGVTIMRQTNRFFFCGHTSGKVSLRDLRTFKVEHEFDAFSGSLSDFDVHGNLLAACGFSSRLTGLACDRFLKVYDLRMMRAITPLQVHVDPAFLRFIPTYTSRLAIISQSGQCQFCEPTGLANPADIFHVNPVGPLLMTFDVSASKQALAFGDSEGCVHLWTDSPEPSFNPYSRETEFALPCLVDSLPPLDWSQDLLPLSLIPVPLTTDTLLSDWPAANSAPAPRRAPPVDAEILRTMKKVGFIGYAPNPRTRLRNQIPYRLKESDSEFDSFSQVTESPVGREEEPHLHMVSKKYRKVTIKYSKLGLEDFDFKHYNKTLFAGLEPHIPNAYCNCMIQVLYFLEPVRCLIQNHLCQKEFCLACELGFLFHMLDLSRGDPCQGNNFLRAFRTIPEASALGLILADSDEASGKGNLARLIQRWNRFILTQLHQDMQELEIPQAYRGAGGSSFCSSGDSVIGQLFSCEMENCSLCRCGSETVRASSTLLFTLSYPDGSKSDKTGKNYDFAQVLKRSICLDQNTQAWCDTCEKYQPTIQTRNIRHLPDILVINCEVNSSKEADFWRMQAEVAFKMAVKKHGGEISKNKEFALADWKELGSPEGVLVCPSIEELKNVWLPFSIRMKMTKNKGLDVCNWTDGDEMQWGPARAEEEHGVYVYDLMATVVHILDSRTGGSLVAHIKVGETYHQRKEGVTHQQWYLFNDFLIEPIDKHEAVQFDMNWKVPAILYYVKRNLNSRYNLNIKNPIEASVLLAEASLARKQRKTHTTFIPLMLNEMPQIGDLVGLDAEFVTLNEEEAELRSDGTKSTIKPSQMSVARITCVRGQGPNEGIPFIDDYISTQEQVVDYLTQYSGIKPGDLDAKISSKHLTTLKSTYLKLRFLIDIGVKFVGHGLQKDFRVINLMVPKDQVLDTVYLFHMPRKRMISLRFLAWYFLDLKIQGETHDSIEDARTALQLYRKYLELSKNGTEPESFHKVLKGLYEKGRKMDWKVPEPEGQTSPKNAAVFSSVLAL
With B2, in assay [3], the binding entry is “no binding”.
